Reference: publication PMC7862700
The other results are listed elsewhere or left out. The exact form of the protein is not confirmed.

The sequences below were run against T1, ETV4 (UniProt P43268) (assay: DAPPL (digital affinity profiling via proximity ligation, sequencing)). Details: 10 mM Tris-HCl pH 7.5, 50 mM NaCl, 1 mM DTT, 4% glycerol, room temperature, 30 min; GST-TFs on glutathione beads, 16-mer random dsDNA library, 0.1% …; high values mean tight binding; double strand, one strand shown; scale: fold enrichment (6-mer frequency, TF over GST control).
T1 sequence: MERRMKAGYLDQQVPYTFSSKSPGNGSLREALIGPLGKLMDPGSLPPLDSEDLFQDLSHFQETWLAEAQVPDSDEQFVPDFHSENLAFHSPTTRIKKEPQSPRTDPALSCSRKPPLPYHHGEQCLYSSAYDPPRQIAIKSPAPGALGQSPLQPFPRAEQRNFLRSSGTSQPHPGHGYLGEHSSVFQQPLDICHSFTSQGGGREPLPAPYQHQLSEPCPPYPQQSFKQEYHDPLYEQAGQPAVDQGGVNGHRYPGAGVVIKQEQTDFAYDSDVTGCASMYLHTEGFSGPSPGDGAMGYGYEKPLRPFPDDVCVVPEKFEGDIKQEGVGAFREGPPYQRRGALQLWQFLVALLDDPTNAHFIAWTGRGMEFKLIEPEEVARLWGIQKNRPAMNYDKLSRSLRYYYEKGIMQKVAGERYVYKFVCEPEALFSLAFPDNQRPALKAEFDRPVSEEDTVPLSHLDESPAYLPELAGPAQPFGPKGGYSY

Row | Sequence | binding signal
1 | ATATTA | 1.1
2 | TCTTGC | 1.25
3 | TATCGT | 1.15
4 | CGCCCG | 1.13
5 | CCTCGT | 1.26
6 | TATCCG | 2.67
7 | TATCTC | 1.38
8 | ACCACC | 1.22
9 | CGCTCC | 1.36
10 | TTGACC | 1.51
11 | CGGATA | 1.25
12 | TTTGGC | 1.36
13 | TTGGTG | 1.26
14 | GCCTAT | 1.32
15 | TCATGC | 1.13
16 | CGCGTC | 1.3
17 | TGTTCA | 1.15
18 | CGCGAC | 1.12
19 | GTTTAC | 1.08
20 | ATATAC | 1.12

Row | Sequence | binding signal
21 | CCTCAC | 1.29
22 | TGCGCG | 1.11
23 | GTTCCA | 1.14
24 | TCCACA | 1.31
25 | GCGATG | 1.25
26 | TACCCT | 1.32
27 | TCCGGA | 2.61
28 | ACCACT | 1.31
29 | ACTTAA | 1.11
30 | AATGCA | 1.25
31 | ATTGCT | 1.2
32 | CCACTT | 2.01
33 | ACCAAT | 1.33
34 | CTTCTA | 1.43
35 | AGAAAT | 1.04
36 | AAAACA | 1.32
37 | TTGCGG | 1.35
38 | TACTCT | 1.4
39 | CTGATC | 1.44

Look-ups from the list.
For binding signal, CTGATC shows 1.44
For binding signal, ACCACT shows 1.31
For binding signal, CTTCTA shows 1.43
